PubChem BioAssay AID686937, Drosophila RNAi Screening Center, 2013

Test: 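Genes whose loss weakens secretory pathway function in fly cells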 (primary screen)
System: Drosophila S2 cells expressing secreted horseradish peroxidase
Reagents: long dsRNA against Drosophila genes
Duration: about 5.5 days (5 days dsRNA, then 12 h reporter induction)
Conditions: reporter expression induced after 5 days of dsRNA, read 12 h later; inducer not stated
Measurement: 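Chemiluminescent measurement of peroxidase in the medium 12 h after reporter induction, following 5 days of dsRNA, given as a z-score per plate; higher means more secretion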
Direction: z-score: higher = more reporter secreted into medium
The deposit covers about 23,000 reagents; below is an unselected part of those that have a named target and a result. 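Reduced-secretion tags in replicate 1 do not always agree with the z-scores; no criterion for assigning the tags was given.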 Reagents against one gene are numbered here. Not all columns of the deposit are shown. The record does not give: the amount of reagent.

The first 2 records, ahead of the listing:
sw | z-score, replicate 1: -0.14
pbl | z-score, replicate 1: -0.41

Results, from the start:
sw | z-score, replicate 1: -0.14
pbl | z-score, replicate 1: -0.41
Ttc7 | z-score, replicate 1: 0.24
CHMP2B | z-score, replicate 1: 0.69
CG10710 | z-score, replicate 1: 0.16
nvd | z-score, replicate 1: -0.69
Use1 | z-score, replicate 1: -2.12; phenotype, replicate 1: reduced secretion
CG6770 | z-score, replicate 1: 0.2
CG10086 | z-score, replicate 1: 0.22
Phae1 | z-score, replicate 1: 0.44
RpS10b | z-score, replicate 1: -0.12; phenotype, replicate 1: reduced secretion
GluRIID | z-score, replicate 1: 0.25
CG14561 | z-score, replicate 1: 0.35
CG3285 | z-score, replicate 1: 0.18
CG4970 | z-score, replicate 1: 0.08
CG4271 | z-score, replicate 1: 0.38
CG15461 | z-score, replicate 1: 0.48
Pdcd4 | z-score, replicate 1: 0.4
ova | z-score, replicate 1: 0.26
CG10359 | z-score, replicate 1: 0.14
Gcna | z-score, replicate 1: 0.32
CG12231 | z-score, replicate 1: -0.21
CG12715 | z-score, replicate 1: 0.29
CG31097 | z-score, replicate 1: 0.14
Nedd4 #1 | z-score, replicate 1: 0.27
Nedd4 #2 | z-score, replicate 1: -0.38
CG30325 | z-score, replicate 1: 0.76
CG31797 #1 | z-score, replicate 1: 0.24
CG31797 #2 | z-score, replicate 1: 0.51
Lip1 | z-score, replicate 1: -0.12
Cyp9b1 | z-score, replicate 1: 0.36
mio #1 | z-score, replicate 1: -0.49
mio #2 | z-score, replicate 1: -1.04
Rok | z-score, replicate 1: 0.17
CG4324 | z-score, replicate 1: 0.58
CG4553 | z-score, replicate 1: -0.04
CG15747 | z-score, replicate 1: -0.34
Nup358 | z-score, replicate 1: -1.21
CG31213 #1 | z-score, replicate 1: 0.11
CG31213 #2 | z-score, replicate 1: 0.33
